# Measured values as given in PubChem BioAssay AID2417 (National Center for Advancing Translational Sciences (NCATS), 2010).
# About 4,300 (3.1%) of roughly 140,000 compounds were called active. The shares of active, inactive and inconclusive entries below differ from those in the screen.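 Rule for the calls: active = readout at or below -70, meaning at least 70% loss of cells showing the perinucleolar compartment, a nuclear body marking cancer cells; inconclusive = readout between -30 and a set limit; inactive = the rest.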
# Experiment: High Content Assay for Compounds that inhibit the Assembly of the Perinucleolar Compartment;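 note: plate controls were DMSO wells for no effect and camptothecin positive control wells for full effect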
# Conditions: PC3M PTB-GFP, PNC prevalence imaging, 16 h; at 10 µM; active compounds read low
# In short: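 Read-out is percentage of cells bearing a perinucleolar compartment, from automated 20x imaging of fixed, Hoechst-stained PC3M PTB-GFP cells. Cells were seeded 4 h, then exposed 16 h to compound (23 nl of library stock) in duplicate plates.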
row,Compound,"activity change (PNC), negative = inhibition"
1,CCOC(=O)c1c(-c2ccc(C)o2)csc1NC(=O)CSc1nncs1,inconclusive: -37.7%
2,CCNc1nc(NC(C)C)nc(NS(=O)(=O)c2ccc(N)cc2)n1,inconclusive: -43.7%
3,CCN(CC(=O)Nc1c(C(=O)OC)[nH]c2ccc(C)cc12)c1ccc2c(c1)OCO2,active: -119%
4,Cc1cccc(NC(=O)C2CCCN2C(=O)Oc2ccccc2)c1C (centres undefined),inconclusive: -38.8%
5,Clc1ccc(OCc2nn3c(C4CCCCC4)nnc3s2)cc1,inactive: -16.3%
6,Cc1ccc(S(=O)(=O)N2CCCC2C(=O)OCc2ccccc2)cc1 (centres undefined),inactive: -24%
7,CN(C)S(=O)(=O)c1ccc(-c2csnn2)s1,inconclusive: -70%
8,S=c1nc(C2CCCCC2)[nH][nH]1,inconclusive: -31%
9,O=C1c2ccccc2C(Nc2ccc(S(=O)(=O)N3CCOCC3)cc2)N1c1cccnc1 (centres undefined),inactive: 10.6%
10,Cn1c(=O)c2c(nc(CN3CCC(C(N)=O)CC3)n2CCCc2ccccc2)n(C)c1=O,inconclusive: -40.8%
11,Clc1ccccc1CN1CCC(Cc2ccccc2)CC1,inconclusive: -56.8%
12,Cc1ccc(NC(=O)NCCCN2CCCC2=O)cc1,inconclusive: -45.8%
13,COc1ccc2c(c1)OC(O)(C(F)F)CC2=O (centres undefined),inconclusive: -50.6%
14,COc1ccccc1N1CCN(CC(O)COc2ccc(S(=O)(=O)N3CCOCC3)cc2)CC1 (centres undefined),inconclusive: -35.7%
15,O=C(/C=C\c1ccccc1)Nc1nccs1,inconclusive: -79%
16,CCOc1ccc(NC(=O)CS(=O)CC(=O)NC2CCCc3ccccc32)cc1 (centres undefined),inactive: -0.956%
17,CCCn1c(=N)n(CC(=O)c2cccs2)c2ccccc21,inconclusive: -72.8%
18,Cc1cc(NCCN2CCOCC2)n2nc(C)c(-c3ccc(Cl)cc3)c2n1,inconclusive: -46.4%
19,O=S(=O)(Nc1nnc(-c2ccccc2)s1)c1ccc(Cl)cc1,inconclusive: -33.6%
20,CCN1CCN(C(=O)c2cc3c(-c4ccc(Cl)cc4)nn(C)c3s2)CC1,inconclusive: -56.9%
21,OC1(c2cccc(C(F)(F)F)c2)CCN(c2ccc(-c3ccccc3)nn2)CC1,inconclusive: -37.5%
22,CCC(C)NC(=O)N[C@@H](CCSC)C(=O)O (some centres undefined),inconclusive: -34.4%

row,Compound,"activity change (PNC), negative = inhibition"
1,Cc1ccc2c(c1)NC(=O)C(CC(=O)NCc1ccc(F)cc1)O2 (centres undefined),inactive: 14.9%
2,Cc1cccn2c(=O)c(/C=C(\C#N)C(=O)NCc3ccco3)c(N3CCC(C(N)=O)CC3)nc12,inactive: 6.64%
3,CCOc1ccc(N2C(=O)CC(SCCN)C2=O)cc1 (centres undefined),inactive: 25.5%
4,O=C(O)CN(c1ccc(F)cc1)S(=O)(=O)c1ccc2c(c1)OCCO2,inactive: 27.4%
5,Cc1ccc(-c2noc(CCC(=O)N3CCCc4ccccc43)n2)cc1,inconclusive: -44%
6,Cc1ccc(NC(=O)COC(=O)C(NS(=O)(=O)c2ccc(Cl)cc2)C(C)O)cc1C (centres undefined),inconclusive: -41.8%
7,CC1CCN(S(=O)(=O)c2cccc(C(=O)Nc3nccs3)c2)CC1,inconclusive: -48.3%
8,Nc1nnc(CC(=O)N/N=C\c2cc([N+](=O)[O-])ccc2O)s1,inconclusive: -47%
9,CCOC(=O)c1[nH]c2ccc(OC)cc2c1NC(=O)NC(C)C,inconclusive: -30.2%
10,O=C(C1CCN(S(=O)(=O)N2CCCC2)CC1)N1CCCCC1,inactive: -24.7%
11,COc1ccccc1-c1nn2c(-c3ccc(C(C)(C)C)cc3)nnc2s1,inactive: 9.25%
12,Cc1cccc(N2C(N)=NC(N)=NC23CCCCC3)c1,inconclusive: -45%
13,O=C(c1ccco1)N1CCN(CC(O)Cn2c3ccccc3c3ccccc32)CC1 (centres undefined),active: -87.3%
14,CC(C)N1CC(O)=C(c2nc3ccccc3c(=O)[nH]2)C1=N,inconclusive: -49.8%
15,CCCCSc1nnc(-c2c[nH]c3ccccc23)n1C,inconclusive: -73.4%
16,CCOC(=O)CN1CC23C=CC(O2)C(C(=O)NCc2cccs2)C3C1=O (centres undefined),inactive: 37.9%
17,O=C(Cn1cc2c(n1)CCCC2)Nc1ccccc1Cl,inconclusive: -38.7%
18,COc1ccc(-c2c(NC(=O)C(C)C)n(C)c3ccccc3c2=O)cc1,inconclusive: -72.5%
19,CCOC(=O)Cn1c(=S)[nH]c2c(oc3ccc(Cl)cc32)c1=O,inconclusive: -32.4%
20,Cc1noc(C)c1C(=O)OC(C)C(=O)Nc1ccc(S(=O)(=O)NC(C)C)cc1 (centres undefined),inconclusive: -76.2%
21,COC(=O)c1cc(CNC(=O)c2cccc(Cl)c2)ccc1OC,active: -88.9%
22,C=CCOC(=O)C(C#N)c1nc2ccccc2nc1N1CCN(Cc2ccc3c(c2)OCO3)CC1 (centres undefined),inconclusive: -30.3%

# 2 consecutive entries already listed, quoted:
row,Compound,"activity change (PNC), negative = inhibition"
21,COC(=O)c1cc(CNC(=O)c2cccc(Cl)c2)ccc1OC,active: -88.9%
22,C=CCOC(=O)C(C#N)c1nc2ccccc2nc1N1CCN(Cc2ccc3c(c2)OCO3)CC1 (centres undefined),inconclusive: -30.3%
